Test results reported in the supplement of paper PMC8007513.
The other results are listed elsewhere or left out. Most values come without repeats; read them as rough.

test system: Saccharomyces cerevisiae BY4743; test: growth (OD600) relative to untreated control; higher = less growth inhibition; details: compound concentration: 133 uM; 20 h
Procedure: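 NMCCC compounds (133 uM, no IPBC) tested alone against Saccharomyces cerevisiae BY4743 in YPD, 96-well plates, starting OD600 ~0.1. Growth was read as OD600 at 20 h and expressed as % of the untreated control. Single pass.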

SMILES | growth
Cc1ccc(C)c(C(=O)CSc2nncn2Cc2ccco2)c1 | 113%
CCOC(=O)c1ccc(CSc2nc[nH]n2)o1 | 101%
COc1ccc(-c2nnc(SCC(=O)NC(C)(C#N)C(C)C)o2)cc1 (stereo not drawn) | 105%
CCOC(=O)N1CCN(C(=O)c2cc(-c3ccc(CC)cc3)[nH]n2)CC1 | 73.8%
Cc1oc(-c2ccccc2)nc1COC(=O)c1ccc(S(=O)(=O)C(F)F)cc1 | 75.3%
C1CCC(CC1)N\C2=N\N=C(/CS2)C3=CC=C[NH]3 | 83.6%
CCc1ccc(CN(CC(=O)N2CCNCC2)S(=O)(=O)c2cc(C)c(C)cc2C)cc1 | 113%
CCC1=CC=C(C=C1)C(CN[S](=O)(=O)\C2=C\C3=CC=CC=C3CC2)N(C)C (stereo not drawn) | 108%
CCC(C)N1CCN(C(=O)CN(C)S(=O)(=O)c2ccc3c(c2)c(=O)n(C)c(=O)n3C)CC1 (stereo not drawn) | 106%
CCN(CC(=O)Nc1sccc1C#N)Cc1ccc2c(c1)OCO2 | 97.6%
COC(=O)c1ccc(CSc2nc(N)c3ccsc3n2)cc1 | 104%
CCCn1c(C)c(C)c(-c2nc3ccccc3[nH]2)c1NC(=O)C(C)C | 108%
CC(C)(C)Nc1nnc(SCc2nc(Cc3ccccc3)no2)s1 | 101%
CCOC(=O)c1sc(-n2nc(C)c(Cc3ccccc3)c2O)nc1C | 117%
Cc1ccc(-c2n[nH]c(SCC(=O)NC3(C#N)CCCC3)n2)cc1 | 103%
CCC1CN(CN2C(=O)C(=O)c3c(Br)cccc32)CCO1 (stereo not drawn) | 102%
CCOC(=O)c1cc2c(OC)ccc(OC)c2n1CC(=O)c1ccccc1 | 90.5%
Cc1nc2ccc(NC(=O)CCn3cncn3)cc2s1 | 92.6%
Cc1cc(Cc2ccc(S(=O)(=O)N(C)Cc3ccccc3)cc2)c(O)nn1 | 77.5%

Some of the entries above, reformatted.
C1CCC(CC1)N\C2=N\N=C(/CS2)C3=CC=C[NH]3
  growth: 83.6%
CCCn1c(C)c(C)c(-c2nc3ccccc3[nH]2)c1NC(=O)C(C)C
  growth: 108%

(continued)

SMILES | growth
FC(F)(F)c1cnc(SCc2noc(-c3ccsc3)n2)c(Cl)c1 | 105%
COC(=O)c1c(NC(=O)CSc2nc(O)c3ccccc3n2)sc(C)c1C | 104%
CCCN(C(=O)C(=O)c1c(C)n(C)c2ccccc12)c1ccc(F)cc1 | 101%
COc1cc(C(=O)OCC(=O)NC2(C#N)CCCC2)cc2c1OCCO2 | 105%
CCN(CC)c1ccc2nnc(CCC(=O)NCc3ccccn3)n2n1 | 101%
Cc1cc(-c2csc(N)n2)c(C)n1NC(=O)c1ccccc1 | 46.7%
N#Cc1ccc(Oc2ccc(S(=O)(=O)N3CCOCC3)cn2)cc1 | 105%
CC(O)CN1C(C2=CC=CC=N2)\C(=C(\O)C1=O)C(=O)C3=CC=C(C)C=C3 (stereo not drawn) | 77.9%
Cc1nc(C)c(-c2nnc(SC(C)C(=O)NC3CCCCCC3)o2)s1 (stereo not drawn) | 102%
COc1ccc(C(=O)OC(C)c2ccccc2Cl)cc1S(=O)(=O)N1CCCC1 (stereo not drawn) | 92.9%
Cc1cc(C)c2[nH]c(C)c(CC(=O)N3CCOCC3)c2c1 | 102%
COC(=O)CSc1nc(-c2ccc(F)cc2)cc(C(F)(F)F)n1 | 85.7%
COc1ccc(-c2noc(CC(=O)N(C)c3cc(C)ccc3C)n2)cc1 | 94.2%
COc1cccc(OC)c1C(=O)OCC(=O)NC(=O)NCc1ccccc1 | 90.4%
Cc1cc2nc(O)c(O)nc2cc1S(=O)(=O)NCc1ccco1 | 103%
CCN(CC(=O)NC1=CC=C(NC(C)=O)C=C1)C(=O)C/2=N/N(C)C(=O)/C=C2 | 108%
CCCCc1ccc(CC(=O)Nc2ccc3c(c2)NC(=O)C(C)O3)cc1 (stereo not drawn) | 107%
CN1\C=C/C(=C\C1=O)C(=O)NCC2=CC=CC=C2OC(F)(F)F | 103%
CN(C)C(=O)C(OC(=O)c1ccc2c(c1)CCC(=O)N2)c1ccccc1 (stereo not drawn) | 103%
